# In patent US10048278B2, “Screening for neurotoxic amino acid associated with neurological disorders” (priority 2003, dated 2018):
# Assay: BMAA in Gunnera plants with cyanobacterial symbiont
# Details: Gunnera kauaiensis, petiolar tissue
smiles,measurement,value
"CNC[C@H](N)C(=O)O [BMAA, β-N-methylamino-L-alanine]",BMAA concentration,4 µg/g
